# Experimental data as given in publication PMC4479417.
# Amino acid sequences for entries named in this document (tags omitted).
# UniProt Q99570: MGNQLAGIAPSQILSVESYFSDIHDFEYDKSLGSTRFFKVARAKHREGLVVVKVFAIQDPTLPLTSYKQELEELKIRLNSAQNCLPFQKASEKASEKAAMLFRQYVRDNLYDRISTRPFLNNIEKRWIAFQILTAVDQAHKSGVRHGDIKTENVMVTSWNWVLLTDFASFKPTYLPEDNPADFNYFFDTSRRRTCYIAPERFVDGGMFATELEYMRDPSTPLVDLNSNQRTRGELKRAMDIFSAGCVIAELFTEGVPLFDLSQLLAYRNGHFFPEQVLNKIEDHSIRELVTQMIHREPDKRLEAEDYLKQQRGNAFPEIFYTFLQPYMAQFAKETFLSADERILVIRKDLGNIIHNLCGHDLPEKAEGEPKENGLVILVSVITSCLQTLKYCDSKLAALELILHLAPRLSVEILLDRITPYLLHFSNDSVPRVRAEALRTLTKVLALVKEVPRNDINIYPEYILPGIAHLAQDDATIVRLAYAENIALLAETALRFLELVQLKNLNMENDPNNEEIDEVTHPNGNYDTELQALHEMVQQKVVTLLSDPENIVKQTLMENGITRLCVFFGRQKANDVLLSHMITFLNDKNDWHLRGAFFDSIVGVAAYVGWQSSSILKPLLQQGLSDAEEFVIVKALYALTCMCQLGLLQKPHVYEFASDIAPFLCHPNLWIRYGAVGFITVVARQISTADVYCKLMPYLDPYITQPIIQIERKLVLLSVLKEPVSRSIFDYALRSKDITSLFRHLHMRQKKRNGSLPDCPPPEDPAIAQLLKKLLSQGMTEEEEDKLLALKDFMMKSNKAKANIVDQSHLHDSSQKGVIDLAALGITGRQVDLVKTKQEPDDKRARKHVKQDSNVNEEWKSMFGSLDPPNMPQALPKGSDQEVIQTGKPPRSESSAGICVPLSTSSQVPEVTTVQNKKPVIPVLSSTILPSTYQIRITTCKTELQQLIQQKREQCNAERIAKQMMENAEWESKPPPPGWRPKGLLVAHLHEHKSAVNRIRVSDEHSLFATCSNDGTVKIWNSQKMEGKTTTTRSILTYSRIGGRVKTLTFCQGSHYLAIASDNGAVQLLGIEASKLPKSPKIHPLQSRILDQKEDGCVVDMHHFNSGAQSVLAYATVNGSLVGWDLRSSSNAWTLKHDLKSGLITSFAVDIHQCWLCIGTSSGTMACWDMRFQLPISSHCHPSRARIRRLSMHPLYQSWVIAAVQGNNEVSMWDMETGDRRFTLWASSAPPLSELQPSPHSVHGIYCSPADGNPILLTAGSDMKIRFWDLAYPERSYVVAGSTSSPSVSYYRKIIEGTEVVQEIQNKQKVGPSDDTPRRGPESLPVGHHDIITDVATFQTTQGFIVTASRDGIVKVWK
# Results are given in words; binding and its absence hold for the method and conditions named. In cells and extracts the contact can be indirect. Some entries that bind do so weakly or less than the wild type. Sequences can lack the tags named with a protein.
# T1: GST-Rab5A (Canis lupus) (Canis lupus) (UniProt P18066)
# T1 sequence: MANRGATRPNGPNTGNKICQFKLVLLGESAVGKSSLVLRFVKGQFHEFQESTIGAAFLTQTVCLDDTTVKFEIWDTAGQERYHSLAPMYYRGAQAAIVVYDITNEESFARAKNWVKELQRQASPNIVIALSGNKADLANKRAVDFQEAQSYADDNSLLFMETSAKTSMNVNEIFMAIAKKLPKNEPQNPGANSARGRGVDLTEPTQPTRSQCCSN
# B1: PI3K-C2γ, [35S]-labelled, in vitro translated (enzyme, UniProt O75747 1-1486)
# chain: MAYSWQTDPNPNESHEKQYEHQEFLFVNQPHSSSQVSLGFDQIVDEISGKIPHYESEIDENTFFVPTAPKWDSTGHSLNEAHQISLNEFTSKSRELSWHQVSKAPAIGFSPSVLPKPQNTNKECSWGSPIGKHHGADDSRFSILAPSFTSLDKINLEKELENENHNYHIGFESSIPPTNSSFSSDFMPKEENKRSGHVNIVEPSLMLLKGSLQPGMWESTWQKNIESIGCSIQLVEVPQSSNTSLASFCNKVKKIRERYHAADVNFNSGKIWSTTTAFPYQLFSKTKFNIHIFIDNSTQPLHFMPCANYLVKDLIAEILHFCTNDQLLPKDHILSVCGSEEFLQNDHCLGSHKMFQKDKSVIQLHLQKSREAPGKLSRKHEEDHSQFYLNQLLEFMHIWKVSRQCLLTLIRKYDFHLKYLLKTQENVYNIIEEVKKICSVLGCVETKQITDAVNELSLILQRKGENFYQSSETSAKGLIEKVTTELSTSIYQLINVYCNSFYADFQPVNVPRCTSYLNPGLPSHLSFTVYAAHNIPETWVHSYKAFSFTCWLTYAGKKLCQVRNYRNIPDKKLFFFLVNWNETINFPLEIKSLPRESMLTVKLFGIACATNNANLLAWTCLPLFPKEKSILGSMLFSMTLQSEPPVEMITPGVWDVSQPSPVTLQIDFPATGWEYMKPDSEENRSNLEEPLKECIKHIARLSQKQTPLLLSEEKKRYLWFYRFYCNNENCSLPLVLGSAPGWDERTVSEMHTILRRWTFSQPLEALGLLTSSFPDQEIRKVAVQQLDNLLNDELLEYLPQLVQAVKFEWNLESPLVQLLLHRSLQSIQVAHRLYWLLKNAENEAYFKSWYQKLLAALQFCAGKALNDEFSKEQKLIKILGDIGERVKSASDHQRQEVLKKEIGRLEEFFQDVNTCHLPLNPALCIKGIDHDACSYFTSNALPLKITFINANPMGKNISIIFKAGDDLRQDMLVLQLIQVMDNIWLQEGLDMQMIIYRCLSTGKDQGLVQMVPDAVTLAKIHRHSGLIGPLKENTIKKWFSQHNHLKADYEKALRNFFYSCAGWCVVTFILGVCDRHNDNIMLTKSGHMFHIDFGKFLGHAQTFGGIKRDRAPFIFTSEMEYFITEGGKNPQHFQDFVELCCRAYNIIRKHSQLLLNLLEMMLYAGLPELSGIQDLKYVYNNLRPQDTDLEATSHFTKKIKESLECFPVKLNNLIHTLAQMSAISPAKSTSQTFPQESCLLSTTRSIERATILGFSKKSSNLYLIQVTHSNNETSLTEKSFEQFSKLHSQLQKQFASLTLPEFPHWWHLPFTNSDHRRFRDLNHYMEQILNVSHEVTNSDCVLSFFLSEAVQQTVEESSPVYLGEKFPDKKPKVQLVISYEDVKLTILVKHMKNIHLPDGSAPSAHVEFYLLPYPSEVRRRKTKSVPKCTDPTYNEIVVYDEVTELQGHVLMLIVKSKTVFVGAINIRLCSVPLDKEKWYPLGNSII
# modifications: [35S]-labelled (Expre35S35S [35S]-Protein Labeling Mix)
# Key:
# [1] = target: T1, GST-Rab5A (Canis lupus) (Canis lupus); assay: pull-down; GST-Rab5A on glutathione beads loaded with GTPγS; incubated with [35S]-labelled in vitro translated protein at 4 °C for 2 h; six washes with 20 mM Tris pH 7.4, 25 mM NaCl, 5 mM MgCl2, 0.1% NP-40, 1 mM dithiothreitol, 10 μM GTPγS; SDS-PAGE and autoradiography; only the target purified
# [2] = target: T1, GST-Rab5A (Canis lupus) (Canis lupus); assay: pull-down; GST-Rab5A on glutathione beads loaded with GDP; incubated with [35S]-labelled in vitro translated protein at 4 °C for 2 h; six washes with 20 mM Tris pH 7.4, 25 mM NaCl, 5 mM MgCl2, 0.1% NP-40, 1 mM dithiothreitol, 10 μM GDP; SDS-PAGE and autoradiography; only the target purified
Molecule,binding [1],binding [2]
"Vps15, [35S]-labelled, in vitro translated (from UniProt Q99570 1-1358)",binds,
B1,binds,binds
